{"source": "paper PMC9322950", "about": "(Pharmaceutics, 2022)", "tested_on": "absolute neutrophil count (ANC)", "assay": "Semi-mechanistic PK/PD neutropenia model (exposure–toxicity relationship, ANC time course)", "type": "in vivo, human", "conditions": "final PK/PD model", "procedure": "ANC was directly retrieved from the patients' medical records up to the date of the last PK observation. The most recent ANC value in the three months before palbociclib initiation was retained as the base value. Blood sampling for ANC measurement was performed either concomitantly or separately from that for palbociclib quantification. The proliferation, maturation, and homeostatic regulation of neutrophils were mimicked by a series of 5 compartments, as described in the model developed by Friberg et al.. This structural model was directly applied to our data. The first compartment represented stem cells and proliferating precursor cells in the bone marrow with the systematic renewal of proliferative cells' production modeled by the rate constant kprol. This compartment was followed by three transit compartments to account for the delay between proliferation and maturation according to the first-order rate constant ktr, defined as n+1/MTT , where MTT is the mean transit time of neutrophils. The last compartment characterized the blood circulation with the neutrophil elimination rate constant kcirc. The rate constants kprol, ktr, and […] assumed to be equal, as in the original model. […] ANCs were log-transformed before the analysis, and an additive error on the log scale was used to describe residual variability. Owing to long computation runtime, neutropenia model development was first performed by fixing the PK parameters that were estimated together with PD parameters in the final model. Potential associations between post hoc individual parameter estimates and demographic or clinical characteristics were first visually explored and then tested in the model. […] The characteristics available for testing their effect on PD parameters were as follows: age, body weight, ALK, BILT, gamma-glutamyltransferase (GGT), albumin, AST, ALT, eGFR, association with fulvestrant, chemotherapy in the previous treatment line, and POCT measurement. […] Despite high inter-individual variability on EC50, covariates were not tested on this parameter and were substituted by covariates on Emax as recommended in good practices for exposure-response analyses. Baseline values of continuous covariates were tested on the base ANC parameter while time-varying values were tested on Emax. Continuous covariates were centered and normalized on their median value and tested by linear or allometric functions as appropriate. Missing data were imputed to the population median value. Categorical covariates were coded as 0 or 1, and missing data were first treated as an additional category and then regrouped according to their parameter estimates. […] The final PK/PD model was evaluated with a non-parametric bootstrap using 502 replicates of the initial dataset. […]", "key": {"[1]": {"conditions": "bootstrap median (n = 502 samples)"}}}
{"compound": "CC(=O)c1c(C)c2cnc(Nc3ccc(N4CCNCC4)cn3)nc2n(C2CCCC2)c1=O", "note": "[palbociclib, Palbociclib]", "values": [{"measurement": "MTT (mean transit time)", "setting": "[1]", "value": 121, "unit": "h"}, {"measurement": "γ (feedback parameter)", "setting": "[1]", "value": 0.13}, {"measurement": "MTT (mean transit time)", "setting": "estimate", "value": 122, "unit": "h"}, {"measurement": "γ (feedback parameter)", "setting": "estimate", "value": 0.13}]}
